For assay [1], the target named is T1, Epithelial and endothelial tyrosine kinase (ETK) (human (endogenous in UM-UC-3 and T24)) (UniProt P51813).
T1 sequence: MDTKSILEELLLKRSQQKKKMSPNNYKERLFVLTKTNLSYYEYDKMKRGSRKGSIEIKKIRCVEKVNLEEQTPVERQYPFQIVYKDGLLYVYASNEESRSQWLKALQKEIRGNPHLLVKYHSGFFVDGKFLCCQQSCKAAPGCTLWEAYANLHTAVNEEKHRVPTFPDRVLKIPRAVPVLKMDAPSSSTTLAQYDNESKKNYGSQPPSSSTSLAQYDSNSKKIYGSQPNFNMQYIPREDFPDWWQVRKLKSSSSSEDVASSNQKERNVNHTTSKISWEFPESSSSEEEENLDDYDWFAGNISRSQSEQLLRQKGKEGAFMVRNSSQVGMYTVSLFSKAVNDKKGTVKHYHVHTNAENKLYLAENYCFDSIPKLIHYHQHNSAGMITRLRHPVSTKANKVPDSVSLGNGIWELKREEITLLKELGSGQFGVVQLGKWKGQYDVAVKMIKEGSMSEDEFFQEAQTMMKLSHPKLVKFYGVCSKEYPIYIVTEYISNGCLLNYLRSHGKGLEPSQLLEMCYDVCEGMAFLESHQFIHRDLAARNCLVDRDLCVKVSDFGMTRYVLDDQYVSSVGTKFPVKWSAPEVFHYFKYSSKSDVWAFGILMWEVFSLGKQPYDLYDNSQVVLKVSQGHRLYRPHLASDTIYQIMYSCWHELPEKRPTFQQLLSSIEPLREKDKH
Kind of assay: co-IP; total cell extracts of UM-UC-3 and T24 cells immunoprecipitated with anti-ETK or IgG control, immunoblotting; lysis buffer 20 mM Tris/HCl pH 7.4, 150 mM NaCl, 1 mM EDTA, 1 mM EGTA, 1% Triton X-100; antibodies overnight at 4°C, protein A or G-Sepharose. In general terms: Immunoblotting shows a protein as a band on a membrane.

For assay [2], the target named is T2, T7-tagged ETK (UniProt P51813).
T2 sequence: T1 sequence
Kind of assay: co-IP; 293T cells co-transfected with T7-Etk and GFP-Bcl-XL; immunoprecipitation with anti-T7 or anti-GFP, immunoblotting; lysis buffer 20 mM Tris/HCl pH 7.4, 150 mM NaCl, 1 mM EDTA, 1 mM EGTA, 1% Triton X-100; antibodies overnight at 4°C.

Results are given in words; binding and its absence hold for the method and conditions named. In cells and extracts the contact can be indirect. Some entries that bind do so weakly or less than the wild type. For some assays here: Where a sequence is shown, tags or fusion partners need not be part of it.

For the substance Bcl-XL (from UniProt Q07817-1 1-233), in assay [1], the binding result was “binds”.
For “GFP-tagged Bcl-XL (from UniProt Q07817-1 1-233)”, the binding entry in assay [2] is given as “binds”.

The values above are taken from article PMC3049795.
